The chains are these.
B1: m2C1 (antibody, V domains shown)
VH: QVQLVQSGAEVKKPGASVKVSCKASGHTFTSYYIHWVRQAPGQGLEWMGIINPSGGSTSYAQKFQGRVTMTRDTSTSTVYMELSSLRSEDTAVYYCARDRAYGGAGDYWGQGTLVTVSS
VL: DIQMTQSPSSLSASVGDRVTITCRASRSISSWLAWYQQKPGKAPKLLIYAASSLQSGVPSRFSGSGSGTDFTLTISSLQPEDFATYYCQQSYSIPATFGQGTKVEIK
B2: m2A1 (antibody, V domains shown)
VH: B1 VH
VL: B1 VL with S28G, I94P, A96W
B3: m3A7 (antibody, V domains shown)
VH: B1 VH
VL: B1 VL with S31N, I94A, A96V
B4: m4D1 (antibody, V domains shown)
VH: B1 VH
VL: B1 VL with R27Q, S31A, A50K, Q55E, I94P, Q100G

Sequences of proteins named here, by UniProt entry; tags and fusion partners are left off. Residues count along the entry.
UniProt Q02242, residues 25-167: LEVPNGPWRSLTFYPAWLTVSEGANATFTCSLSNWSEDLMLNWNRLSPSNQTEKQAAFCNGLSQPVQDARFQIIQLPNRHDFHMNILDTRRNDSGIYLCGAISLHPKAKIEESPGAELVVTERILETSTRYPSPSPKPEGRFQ

Among the data in patent US20230416363A1 are binding values, retold here.

Changes are numbered by the printed parent chain. These are yes or no findings as the source states them, for the method shown. Some binding calls cover weakened binding; strength is not graded here.

This assay deals with mPD1 (soluble, ELISA of Examples 20 and 24) (mouse) (UniProt Q02242). Description: ELISA. On the technique in general: ELISA stands for enzyme-linked immunosorbent assay.
B1: the binding entry is on record as “binds”.
Next, B2: “binds”; B3: “binds”.
As to B4, the binding result was “binds”.
